The other results are listed elsewhere or left out.
What was measured:
Assay in all cases: log2 fold change, soluble protein after heating vs DMSO (PISA); higher = thermal stabilisation; K562 lysate, 10 uM; active = over 0.2 and 3.5 SD of the protein, either way, in both replicates (recomputed)
lapatinib = compound: CS(=O)(=O)CCNCc1ccc(-c2ccc3ncnc(Nc4ccc(OCc5cccc(F)c5)c(Cl)c4)c3c2)o1 [lapatinib]
Summary of the method: (§1)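 Pellets of K562 cells were dounce-homogenised in PBS pH 7.4 with 1 mM MgCl2, and the crude extract was held at 1 mg/mL protein for a 30 min treatment with 10 μM compound. Aliquots were heated for 3 min over 48°C-58°C and pooled before NP-40 was added to 0.5% at 4°C. The supernatant from 21,000xg for 90 min was quantified by TMTpro 16plex LC-MS/MS with channel sums equalised. Values are reported from duplicates as log-two fold change in thermal stability relative to solvent controls.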

By UniProt entry, the sequences of proteins in these tests, tags left out. Where a name states a change or a piece, a line headed by the entry shows the natural chain unless it says otherwise.
UniProt O94868: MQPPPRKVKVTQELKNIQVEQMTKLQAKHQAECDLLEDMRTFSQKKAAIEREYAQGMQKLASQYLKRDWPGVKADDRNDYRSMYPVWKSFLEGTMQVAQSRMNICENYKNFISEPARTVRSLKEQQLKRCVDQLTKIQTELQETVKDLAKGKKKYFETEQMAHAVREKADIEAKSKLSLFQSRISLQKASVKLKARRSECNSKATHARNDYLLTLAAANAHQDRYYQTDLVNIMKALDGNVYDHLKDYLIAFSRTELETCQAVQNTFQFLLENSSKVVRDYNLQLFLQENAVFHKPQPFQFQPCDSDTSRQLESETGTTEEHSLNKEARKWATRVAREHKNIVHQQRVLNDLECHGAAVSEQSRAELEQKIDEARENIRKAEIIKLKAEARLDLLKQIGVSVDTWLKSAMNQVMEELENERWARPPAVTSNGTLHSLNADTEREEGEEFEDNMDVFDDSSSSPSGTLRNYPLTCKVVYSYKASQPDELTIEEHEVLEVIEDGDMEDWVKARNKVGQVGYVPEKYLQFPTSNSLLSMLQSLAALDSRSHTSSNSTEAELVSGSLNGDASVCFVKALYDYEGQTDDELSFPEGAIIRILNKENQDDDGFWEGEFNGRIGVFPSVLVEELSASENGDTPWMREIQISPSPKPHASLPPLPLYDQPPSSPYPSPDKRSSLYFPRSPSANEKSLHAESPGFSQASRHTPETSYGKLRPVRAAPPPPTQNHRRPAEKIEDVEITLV
UniProt Q13642: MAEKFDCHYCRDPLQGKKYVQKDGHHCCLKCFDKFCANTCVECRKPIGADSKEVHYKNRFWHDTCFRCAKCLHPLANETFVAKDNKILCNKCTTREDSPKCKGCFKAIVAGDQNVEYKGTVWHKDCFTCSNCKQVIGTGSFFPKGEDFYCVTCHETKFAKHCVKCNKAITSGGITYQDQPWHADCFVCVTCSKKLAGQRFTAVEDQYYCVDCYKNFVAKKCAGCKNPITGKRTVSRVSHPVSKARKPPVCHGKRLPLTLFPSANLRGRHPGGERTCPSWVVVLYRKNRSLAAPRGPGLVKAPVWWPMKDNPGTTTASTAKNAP
UniProt Q8NFZ0: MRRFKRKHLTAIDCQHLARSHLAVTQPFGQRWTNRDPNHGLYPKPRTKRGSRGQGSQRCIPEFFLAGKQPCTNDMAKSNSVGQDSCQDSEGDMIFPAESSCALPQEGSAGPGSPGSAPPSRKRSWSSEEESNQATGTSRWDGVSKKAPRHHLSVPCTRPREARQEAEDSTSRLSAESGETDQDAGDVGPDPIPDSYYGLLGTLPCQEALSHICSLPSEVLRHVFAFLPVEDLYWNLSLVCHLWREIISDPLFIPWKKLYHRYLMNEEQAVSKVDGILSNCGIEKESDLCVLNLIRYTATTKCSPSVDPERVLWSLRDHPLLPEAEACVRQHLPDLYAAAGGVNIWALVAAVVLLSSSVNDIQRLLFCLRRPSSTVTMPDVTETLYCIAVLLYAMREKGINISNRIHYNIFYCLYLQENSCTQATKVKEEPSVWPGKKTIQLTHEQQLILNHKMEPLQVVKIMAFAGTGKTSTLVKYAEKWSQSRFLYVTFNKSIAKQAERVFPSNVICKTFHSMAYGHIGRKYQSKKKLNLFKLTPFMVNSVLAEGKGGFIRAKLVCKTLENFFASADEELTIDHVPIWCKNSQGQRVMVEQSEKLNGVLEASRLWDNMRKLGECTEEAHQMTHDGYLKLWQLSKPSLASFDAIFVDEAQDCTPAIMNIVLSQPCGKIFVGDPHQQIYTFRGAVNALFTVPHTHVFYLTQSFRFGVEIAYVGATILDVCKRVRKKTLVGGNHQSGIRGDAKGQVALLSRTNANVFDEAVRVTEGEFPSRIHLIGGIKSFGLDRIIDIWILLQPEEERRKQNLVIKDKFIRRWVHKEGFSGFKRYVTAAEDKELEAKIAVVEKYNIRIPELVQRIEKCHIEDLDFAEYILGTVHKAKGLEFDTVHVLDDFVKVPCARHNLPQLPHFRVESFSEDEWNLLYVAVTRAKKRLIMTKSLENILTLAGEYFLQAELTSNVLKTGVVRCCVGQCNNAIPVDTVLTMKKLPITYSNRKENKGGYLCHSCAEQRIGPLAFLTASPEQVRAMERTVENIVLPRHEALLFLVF
UniProt Q9NVK5: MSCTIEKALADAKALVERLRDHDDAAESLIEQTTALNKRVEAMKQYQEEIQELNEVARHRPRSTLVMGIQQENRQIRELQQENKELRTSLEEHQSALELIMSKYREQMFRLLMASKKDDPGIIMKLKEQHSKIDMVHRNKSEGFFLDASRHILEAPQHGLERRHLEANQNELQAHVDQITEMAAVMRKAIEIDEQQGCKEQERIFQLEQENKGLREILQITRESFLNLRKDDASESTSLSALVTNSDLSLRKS
UniProt P01100, whole entry, looked up: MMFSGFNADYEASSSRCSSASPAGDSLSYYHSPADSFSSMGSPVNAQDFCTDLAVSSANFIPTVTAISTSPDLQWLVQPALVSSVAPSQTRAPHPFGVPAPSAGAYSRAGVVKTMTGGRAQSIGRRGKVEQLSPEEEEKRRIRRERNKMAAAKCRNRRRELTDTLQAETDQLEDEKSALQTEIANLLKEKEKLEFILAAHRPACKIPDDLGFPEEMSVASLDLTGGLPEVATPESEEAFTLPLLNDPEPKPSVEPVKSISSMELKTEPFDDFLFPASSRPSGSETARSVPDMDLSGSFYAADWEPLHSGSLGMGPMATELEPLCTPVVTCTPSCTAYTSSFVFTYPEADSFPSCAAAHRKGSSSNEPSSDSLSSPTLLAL
UniProt Q9UHY8: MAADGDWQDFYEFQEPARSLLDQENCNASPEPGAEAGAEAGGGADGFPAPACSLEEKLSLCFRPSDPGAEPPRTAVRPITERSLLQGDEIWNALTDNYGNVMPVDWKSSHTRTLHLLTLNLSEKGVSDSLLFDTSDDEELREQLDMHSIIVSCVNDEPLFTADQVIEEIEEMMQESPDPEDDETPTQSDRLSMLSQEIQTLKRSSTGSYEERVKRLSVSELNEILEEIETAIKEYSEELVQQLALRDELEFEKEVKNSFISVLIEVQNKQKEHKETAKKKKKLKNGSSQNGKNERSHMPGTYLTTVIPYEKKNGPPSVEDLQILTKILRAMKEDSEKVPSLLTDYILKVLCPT
UniProt O15287: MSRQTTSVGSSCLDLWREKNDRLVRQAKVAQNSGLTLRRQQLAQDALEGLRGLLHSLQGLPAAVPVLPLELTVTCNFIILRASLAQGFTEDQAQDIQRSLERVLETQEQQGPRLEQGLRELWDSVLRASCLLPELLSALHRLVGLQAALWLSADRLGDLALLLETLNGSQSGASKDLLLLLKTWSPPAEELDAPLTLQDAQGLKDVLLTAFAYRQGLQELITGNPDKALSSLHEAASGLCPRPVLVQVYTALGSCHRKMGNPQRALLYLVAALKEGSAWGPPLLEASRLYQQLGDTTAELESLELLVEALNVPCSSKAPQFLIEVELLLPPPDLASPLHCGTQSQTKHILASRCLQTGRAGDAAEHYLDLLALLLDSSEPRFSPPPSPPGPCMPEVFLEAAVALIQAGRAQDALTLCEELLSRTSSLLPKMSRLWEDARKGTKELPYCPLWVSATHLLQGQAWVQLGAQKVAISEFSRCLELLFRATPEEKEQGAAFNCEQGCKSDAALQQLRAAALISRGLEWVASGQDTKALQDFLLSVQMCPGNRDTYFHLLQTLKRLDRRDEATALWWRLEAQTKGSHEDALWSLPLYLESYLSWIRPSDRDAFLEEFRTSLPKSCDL
UniProt Q96AY3, whole entry, looked up: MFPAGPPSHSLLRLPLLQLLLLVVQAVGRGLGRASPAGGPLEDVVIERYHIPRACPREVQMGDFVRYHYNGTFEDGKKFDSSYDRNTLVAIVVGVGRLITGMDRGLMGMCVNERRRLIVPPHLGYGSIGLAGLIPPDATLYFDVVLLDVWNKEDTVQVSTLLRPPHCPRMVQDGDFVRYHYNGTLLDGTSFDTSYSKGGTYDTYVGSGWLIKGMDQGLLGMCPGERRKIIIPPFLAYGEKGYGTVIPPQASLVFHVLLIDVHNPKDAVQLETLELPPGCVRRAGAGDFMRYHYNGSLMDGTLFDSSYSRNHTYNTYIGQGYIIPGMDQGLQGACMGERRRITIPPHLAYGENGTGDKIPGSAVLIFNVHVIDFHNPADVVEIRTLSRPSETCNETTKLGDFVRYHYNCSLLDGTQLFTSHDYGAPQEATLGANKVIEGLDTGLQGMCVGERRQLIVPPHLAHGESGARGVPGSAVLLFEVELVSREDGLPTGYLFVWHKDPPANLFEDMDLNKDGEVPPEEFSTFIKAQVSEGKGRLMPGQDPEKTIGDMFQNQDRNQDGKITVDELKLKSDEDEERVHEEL
UniProt O15360: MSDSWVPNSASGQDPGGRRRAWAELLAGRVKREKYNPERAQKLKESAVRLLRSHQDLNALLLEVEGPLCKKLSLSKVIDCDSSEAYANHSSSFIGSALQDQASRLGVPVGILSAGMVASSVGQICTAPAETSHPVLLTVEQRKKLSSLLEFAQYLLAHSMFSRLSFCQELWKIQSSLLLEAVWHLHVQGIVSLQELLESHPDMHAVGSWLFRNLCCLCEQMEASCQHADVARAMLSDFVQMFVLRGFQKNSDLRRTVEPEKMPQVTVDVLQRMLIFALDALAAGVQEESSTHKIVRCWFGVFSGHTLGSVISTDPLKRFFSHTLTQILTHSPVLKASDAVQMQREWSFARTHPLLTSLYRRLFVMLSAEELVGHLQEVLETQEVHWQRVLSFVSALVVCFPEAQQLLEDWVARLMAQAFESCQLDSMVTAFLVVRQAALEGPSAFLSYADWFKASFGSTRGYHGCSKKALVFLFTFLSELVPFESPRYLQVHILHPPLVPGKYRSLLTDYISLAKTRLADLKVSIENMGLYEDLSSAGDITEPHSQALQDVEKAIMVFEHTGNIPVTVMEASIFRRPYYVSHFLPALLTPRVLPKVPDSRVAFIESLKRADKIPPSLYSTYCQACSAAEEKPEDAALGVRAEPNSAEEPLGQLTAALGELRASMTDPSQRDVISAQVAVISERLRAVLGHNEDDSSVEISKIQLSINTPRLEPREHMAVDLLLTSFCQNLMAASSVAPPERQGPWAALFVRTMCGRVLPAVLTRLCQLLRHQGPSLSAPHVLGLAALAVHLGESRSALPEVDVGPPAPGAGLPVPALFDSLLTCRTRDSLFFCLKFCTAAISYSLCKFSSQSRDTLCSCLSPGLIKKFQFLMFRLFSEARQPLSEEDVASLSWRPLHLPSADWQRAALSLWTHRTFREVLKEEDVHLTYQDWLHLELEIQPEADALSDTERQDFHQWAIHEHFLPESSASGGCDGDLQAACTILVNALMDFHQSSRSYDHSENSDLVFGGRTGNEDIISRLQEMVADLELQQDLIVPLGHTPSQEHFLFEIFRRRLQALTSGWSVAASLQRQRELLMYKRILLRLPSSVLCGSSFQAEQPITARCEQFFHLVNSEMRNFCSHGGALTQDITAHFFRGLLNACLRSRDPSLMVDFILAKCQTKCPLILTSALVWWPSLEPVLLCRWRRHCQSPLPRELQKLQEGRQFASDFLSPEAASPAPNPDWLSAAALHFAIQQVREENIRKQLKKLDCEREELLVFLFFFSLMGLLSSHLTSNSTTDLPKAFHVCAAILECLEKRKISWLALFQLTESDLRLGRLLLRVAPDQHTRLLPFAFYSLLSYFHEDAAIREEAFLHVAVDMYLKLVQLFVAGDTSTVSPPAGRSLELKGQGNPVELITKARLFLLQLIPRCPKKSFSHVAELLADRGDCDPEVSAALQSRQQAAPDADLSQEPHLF

duvelisib = compound: C[C@H](Nc1ncnc2nc[nH]c12)c1cc2cccc(Cl)c2c(=O)n1-c1ccccc1 [duvelisib]
Summary of the method: as §1

nilotinib = compound: Cc1cn(-c2cc(NC(=O)c3ccc(C)c(Nc4nccc(-c5cccnc5)n4)c3)cc(C(F)(F)F)c2)cn1 [nilotinib]
Summary of the method: as §1

[1] = compound: Cc1nc(Nc2n[nH]c3c2CN(C(=O)N[C@H](CN(C)C)c2ccccc2)C3(C)C)c2sccc2n1
Summary of the method: as §1

dasatinib = compound: Cc1nc(Nc2ncc(C(=O)Nc3c(C)cccc3Cl)s2)cc(N2CCN(CCO)CC2)n1 [dasatinib]
Summary of the method: as §1

[2] = compound: Cc1ncc(-c2ccnc(Nc3ccc(S(C)(=O)=O)cc3)n2)n1C(C)C
Summary of the method: as §1

[3] = compound: Cn1cc(-c2ccc3c(c2)CCN3C(=O)Cc2cccc(C(F)(F)F)c2)c2c(N)ncnc21
Summary of the method: as §1

tipifarnib = compound: Cn1cncc1[C@@](N)(c1ccc(Cl)cc1)c1ccc2c(c1)c(-c1cccc(Cl)c1)cc(=O)n2C [tipifarnib]
Summary of the method: as §1

[4] = compound: NC(=O)c1cnc(N[C@@H]2CCCC[C@@H]2N)nc1Nc1cccc(-n2nccn2)c1
Summary of the method: as §1

[5] = compound: C[C@H](C1=CC=C(C=C1)C(=O)NC2=C3C=CNC3=NC=C2)N
Summary of the method: as §1

gandotinib = compound: Cc1cc(Nc2cc(CN3CCOCC3)c3nc(C)c(Cc4ccc(Cl)cc4F)n3n2)n[nH]1 [gandotinib]
Summary of the method: as §1

[6] = compound: Cc1cccc(CC(=O)N2CCc3c2ccc(-c2cn(C)c4ncnc(N)c24)c3F)n1
Summary of the method: as §1

pictilisib = compound: CS(=O)(=O)N1CCN(Cc2cc3nc(-c4cccc5[nH]ncc45)nc(N4CCOCC4)c3s2)CC1 [pictilisib]
Summary of the method: as §1

crizotinib = compound: C[C@@H](Oc1cc(-c2cnn(C3CCNCC3)c2)cnc1N)c1c(Cl)ccc(F)c1Cl [crizotinib]
Summary of the method: as §1

doramapimod = compound: Cc1ccc(-n2nc(C(C)(C)C)cc2NC(=O)Nc2ccc(OCCN3CCOCC3)c3ccccc23)cc1 [doramapimod]
Summary of the method: as §1

bafetinib = compound: Cc1ccc(NC(=O)c2ccc(CN3CC[C@H](N(C)C)C3)c(C(F)(F)F)c2)cc1Nc1nccc(-c2cncnc2)n1 [bafetinib]
Summary of the method: as §1

quisinostat = compound: Cn1cc(CNCC2CCN(c3ncc(C(=O)NO)cn3)CC2)c2ccccc21 [quisinostat]
Summary of the method: as §1

[7] = compound: NC(=O)Nc1cc(-c2cccc(F)c2)sc1C(=O)N[C@H]1CCCNC1
Summary of the method: as §1

tozasertib = compound: Cc1cc(Nc2cc(N3CCN(C)CC3)nc(Sc3ccc(NC(=O)C4CC4)cc3)n2)n[nH]1 [tozasertib]
Summary of the method: as §1

[8] = compound: NC1(c2ccc(-c3nc4ccn5c(=O)[nH]nc5c4cc3-c3ccccc3)cc2)CCC1
Summary of the method: as §1

Measured: log2 fold change

FCHSD2 (UniProt O94868)
inactive: lapatinib -0.024 | duvelisib 0.029 | nilotinib 0.006 | [1] 0.048 | dasatinib -0.083 | [2] 0.075 | [3] -0.038 | tipifarnib -0.066 | [4] -0.119

FHL1 isoform 4 (UniProt Q13642)
inactive: [5] 0.423 | gandotinib -0.172 | [6] -0.09

FBH1 isoform 2 (UniProt Q8NFZ0)
inactive: pictilisib 0.02 | crizotinib 0.051 | [5] 0.174 | gandotinib -0.059 | doramapimod 0.049 | bafetinib 0.016 | [6] -0.049 | nilotinib 0.249 | [1] -0.049 | [2] 0.014 | quisinostat -0.136 | tipifarnib -0.153 | [7] -0.005

FBRSL1, A0A3B3IRR3
inactive: pictilisib -0.064 | crizotinib 0.086 | [5] -0.114 | duvelisib 0.035 | gandotinib 0.032 | tozasertib -0.105 | doramapimod -0.161 | bafetinib -0.089 | [6] 0.146 | nilotinib 0.034 | [1] 0.022 | dasatinib 0.01 | [2] 0.013 | [3] -0.042 | quisinostat 0.031 | tipifarnib -0.073 | [7] 0.029 | [8] 0.066

FGFR1OP2 isoform 2 (UniProt Q9NVK5)
inactive: crizotinib -0.006 | [5] 0.148 | gandotinib -0.017 | doramapimod -0.155 | [6] -0.187 | quisinostat 0.101 | [7] -0.06

FARP2 (UniProt H7C3M7)
inactive: crizotinib -0.079 | [5] -0.099 | duvelisib -0.076 | gandotinib 0.051 | tozasertib -0.09 | doramapimod 0.171 | [6] 0.105 | nilotinib 0.05 | [1] -0.08 | dasatinib -0.037 | [2] 0.031 | [3] 0.089 | quisinostat -0.086 | tipifarnib -0.201 | [7] -0.055 | [8] -0.047

FOS (UniProt P01100)
inactive: [5] -0.511 | gandotinib 0.009 | tozasertib 0.219 | [6] -0.246

FEZ2 (UniProt Q9UHY8)
inactive: [5] -0.039 | gandotinib -0.048 | [6] 0.062

FANCG (UniProt O15287)
inactive: crizotinib -0.12 | [5] 0.08 | gandotinib 0.051 | tozasertib 0.008 | doramapimod -0.215 | [6] -0.084 | nilotinib -0.172 | [1] 0.101 | [2] 0.013 | quisinostat -0.094 | tipifarnib 0.083 | [7] 0.052

3 neighbouring records already listed, quoted:
FOS (UniProt P01100)
inactive: [5] -0.511 | gandotinib 0.009 | tozasertib 0.219 | [6] -0.246

FEZ2 (UniProt Q9UHY8)
inactive: [5] -0.039 | gandotinib -0.048 | [6] 0.062

FANCG (UniProt O15287)
inactive: crizotinib -0.12 | [5] 0.08 | gandotinib 0.051 | tozasertib 0.008 | doramapimod -0.215 | [6] -0.084 | nilotinib -0.172 | [1] 0.101 | [2] 0.013 | quisinostat -0.094 | tipifarnib 0.083 | [7] 0.052

The list goes on.

FKBP10 (UniProt Q96AY3)
inactive: [5] 0.083 | duvelisib 0.406 | gandotinib -0.244 | tozasertib 0.037 | [6] -0.011 | nilotinib -0.035 | [1] 0.205 | dasatinib -0.072 | [2] -0.048 | [3] -0.049 | tipifarnib -0.023

FANCA (UniProt O15360)
inactive: crizotinib -0.137 | duvelisib 0.104 | tozasertib 0.037 | doramapimod -0.194 | dasatinib -0.168 | [3] -0.038 | quisinostat -0.047 | [7] -0.042

— the supplement of paper PMC10849652
